Results are given in words; binding and its absence hold for the method and conditions named. Binding seen in cells or lysates may run through a third protein. Some results given as binding are weak or reduced against the parent protein; the word gives no strength. Each block holds one substance with its values, some of them ahead of it.
Assays:
Flag-NCAPH = Flag-NCAPH (UniProt Q15003); test: co-IP; HEK 293T cells cotransfected with HA-TRIM21 or its domain mutants and Flag-NCAPH; precipitated with Flag antibody, western blot
HA-TRIM21 = HA-TRIM21 (UniProt P19474); test: co-IP; HEK 293T cells cotransfected with HA-TRIM21 or its domain mutants and Flag-NCAPH; precipitated with HA antibody, western blot
TRIM21 ΔB-box (91-128AA) = TRIM21 ΔB-box (91-128AA) (UniProt P19474); test: as above
TRIM21 ΔCC (130-255AA) = TRIM21 ΔCC (130-255AA) (UniProt P19474); test: as above
[1] = target: TRIM21 ΔPRY/SPRY (286-475AA) (UniProt P19474); test: as above
TRIM21 ΔRING (15-58AA) = TRIM21 ΔRING (15-58AA) (UniProt P19474); test: as above
[2] = target: NCAPH (non-SMC condensin I complex subunit H) (human (endogenous in HeLa)) (UniProt Q15003); test: co-IP; endogenous proteins, cell lysate, NCAPH antibody as bait, protein A agarose beads, 4 °C overnight, western blot
[3] = target: Tripartite motif-containing protein 21 (TRIM21) (human (endogenous in HeLa)) (UniProt P19474); test: co-IP; endogenous proteins, cell lysate, TRIM21 antibody as bait, protein A agarose beads, 4 °C overnight, western blot

Protein sequences, listed by entry. Tags and fused reporters are not part of them. Lines headed by an entry give the natural chain unless they say otherwise; changes in a name come on top. Chains listed by the source or under a name are the forms on record and can include a tag or linker.
UniProt Q15003: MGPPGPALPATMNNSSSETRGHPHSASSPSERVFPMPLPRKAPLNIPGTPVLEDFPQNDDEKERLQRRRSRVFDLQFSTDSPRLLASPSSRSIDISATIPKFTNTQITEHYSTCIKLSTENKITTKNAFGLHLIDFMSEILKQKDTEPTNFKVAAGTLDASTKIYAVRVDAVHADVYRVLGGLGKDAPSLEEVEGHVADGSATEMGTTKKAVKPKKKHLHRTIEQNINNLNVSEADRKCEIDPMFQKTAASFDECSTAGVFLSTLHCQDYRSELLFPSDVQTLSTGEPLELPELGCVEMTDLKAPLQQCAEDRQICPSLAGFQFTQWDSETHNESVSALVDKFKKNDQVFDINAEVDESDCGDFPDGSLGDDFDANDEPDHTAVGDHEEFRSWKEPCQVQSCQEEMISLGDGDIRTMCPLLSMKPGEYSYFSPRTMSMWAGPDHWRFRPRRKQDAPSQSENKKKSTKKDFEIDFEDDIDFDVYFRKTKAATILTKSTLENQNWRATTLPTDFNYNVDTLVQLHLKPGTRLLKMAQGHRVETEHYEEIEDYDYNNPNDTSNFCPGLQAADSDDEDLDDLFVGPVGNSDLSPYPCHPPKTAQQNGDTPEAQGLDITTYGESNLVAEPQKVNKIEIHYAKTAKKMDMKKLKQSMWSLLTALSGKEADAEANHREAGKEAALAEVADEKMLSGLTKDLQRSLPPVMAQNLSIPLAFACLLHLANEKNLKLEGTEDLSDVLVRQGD
UniProt P19474: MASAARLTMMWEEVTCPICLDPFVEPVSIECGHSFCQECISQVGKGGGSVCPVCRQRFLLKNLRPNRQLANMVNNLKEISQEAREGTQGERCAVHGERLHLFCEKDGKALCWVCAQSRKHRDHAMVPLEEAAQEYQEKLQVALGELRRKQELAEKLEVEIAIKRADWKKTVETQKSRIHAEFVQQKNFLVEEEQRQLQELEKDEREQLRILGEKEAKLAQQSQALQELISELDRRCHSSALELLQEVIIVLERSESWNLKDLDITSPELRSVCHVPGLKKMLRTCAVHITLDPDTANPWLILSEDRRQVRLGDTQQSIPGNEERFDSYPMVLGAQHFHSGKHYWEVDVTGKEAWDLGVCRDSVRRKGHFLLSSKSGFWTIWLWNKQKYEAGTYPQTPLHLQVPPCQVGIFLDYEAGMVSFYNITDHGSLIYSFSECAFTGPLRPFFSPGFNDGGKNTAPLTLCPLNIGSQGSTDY
TRIM21 ΔB-box (91-128AA) (P19474, form named): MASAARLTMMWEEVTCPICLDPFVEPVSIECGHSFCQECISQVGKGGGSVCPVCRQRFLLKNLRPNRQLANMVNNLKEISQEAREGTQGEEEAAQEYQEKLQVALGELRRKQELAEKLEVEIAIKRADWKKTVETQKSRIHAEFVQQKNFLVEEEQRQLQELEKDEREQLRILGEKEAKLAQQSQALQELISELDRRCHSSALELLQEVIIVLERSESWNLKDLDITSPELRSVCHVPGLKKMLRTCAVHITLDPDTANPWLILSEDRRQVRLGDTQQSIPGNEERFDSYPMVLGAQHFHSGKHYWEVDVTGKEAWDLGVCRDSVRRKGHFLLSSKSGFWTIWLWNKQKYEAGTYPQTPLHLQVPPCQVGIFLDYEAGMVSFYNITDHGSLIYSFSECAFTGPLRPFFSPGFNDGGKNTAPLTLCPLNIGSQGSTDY
TRIM21 ΔCC (130-255AA) (P19474, form named): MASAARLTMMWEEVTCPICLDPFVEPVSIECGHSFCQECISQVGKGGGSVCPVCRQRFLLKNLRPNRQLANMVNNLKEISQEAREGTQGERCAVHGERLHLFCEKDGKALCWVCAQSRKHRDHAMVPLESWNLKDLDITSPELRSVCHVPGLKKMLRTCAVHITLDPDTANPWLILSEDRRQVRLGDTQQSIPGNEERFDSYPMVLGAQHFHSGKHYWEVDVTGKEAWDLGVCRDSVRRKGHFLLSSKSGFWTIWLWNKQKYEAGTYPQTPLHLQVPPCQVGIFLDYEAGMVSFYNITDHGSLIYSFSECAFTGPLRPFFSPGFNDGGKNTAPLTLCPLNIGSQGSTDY
TRIM21 ΔRING (15-58AA) (P19474, form named): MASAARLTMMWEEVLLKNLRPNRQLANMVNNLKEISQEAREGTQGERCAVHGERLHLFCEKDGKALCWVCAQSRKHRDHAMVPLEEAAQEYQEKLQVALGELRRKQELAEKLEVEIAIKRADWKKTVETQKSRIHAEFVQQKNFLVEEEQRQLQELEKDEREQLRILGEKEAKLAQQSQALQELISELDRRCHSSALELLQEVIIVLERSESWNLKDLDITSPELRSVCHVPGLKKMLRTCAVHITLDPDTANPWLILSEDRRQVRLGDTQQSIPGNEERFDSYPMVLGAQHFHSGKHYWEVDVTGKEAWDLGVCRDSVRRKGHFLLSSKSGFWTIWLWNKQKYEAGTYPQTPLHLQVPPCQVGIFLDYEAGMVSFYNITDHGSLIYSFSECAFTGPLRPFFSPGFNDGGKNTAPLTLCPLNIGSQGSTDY

binding (Flag-NCAPH): binds weakly
Substance: TRIM21 ΔPRY/SPRY (286-475AA) (from UniProt P19474 1-475)

binding (HA-TRIM21): binds
binding (TRIM21 ΔB-box (91-128AA)): binds
binding (TRIM21 ΔCC (130-255AA)): binds weakly
binding [1]: binds weakly
binding (TRIM21 ΔRING (15-58AA)): binds
Substance: Flag-NCAPH (from UniProt Q15003 1-741)

binding (Flag-NCAPH): binds weakly
Substance: TRIM21 ΔCC (130-255AA) (from UniProt P19474 1-475)

binding [2]: binds
Substance: Tripartite motif-containing protein 21 (TRIM21) (from UniProt P19474 1-475)

binding (Flag-NCAPH): binds
Substance: HA-TRIM21 (from UniProt P19474 1-475)

binding [3]: binds
Substance: NCAPH (non-SMC condensin I complex subunit H) (from UniProt Q15003 1-741)

binding (Flag-NCAPH): binds
Substance: TRIM21 ΔB-box (91-128AA) (from UniProt P19474 1-475)

binding (Flag-NCAPH): binds
Substance: TRIM21 ΔRING (15-58AA) (from UniProt P19474 1-475)

Reference: PMC11300717
